For the experiment, the target named is Poly [ADP-ribose] polymerase 1 (human (endogenous in HeLa)) (UniProt P09874). Put plainly: co-IP; endogenous PARP-1 immunoprecipitated from HeLa cell lysate with mouse monoclonal F1-23 antibody (control: normal mouse IgG); western blot with rabbit polyclonal RFC1 antibody and C2-10 antibody to PARP-1.

The chains behind the UniProt entries cited, without tags or fusion partners.
UniProt P09874: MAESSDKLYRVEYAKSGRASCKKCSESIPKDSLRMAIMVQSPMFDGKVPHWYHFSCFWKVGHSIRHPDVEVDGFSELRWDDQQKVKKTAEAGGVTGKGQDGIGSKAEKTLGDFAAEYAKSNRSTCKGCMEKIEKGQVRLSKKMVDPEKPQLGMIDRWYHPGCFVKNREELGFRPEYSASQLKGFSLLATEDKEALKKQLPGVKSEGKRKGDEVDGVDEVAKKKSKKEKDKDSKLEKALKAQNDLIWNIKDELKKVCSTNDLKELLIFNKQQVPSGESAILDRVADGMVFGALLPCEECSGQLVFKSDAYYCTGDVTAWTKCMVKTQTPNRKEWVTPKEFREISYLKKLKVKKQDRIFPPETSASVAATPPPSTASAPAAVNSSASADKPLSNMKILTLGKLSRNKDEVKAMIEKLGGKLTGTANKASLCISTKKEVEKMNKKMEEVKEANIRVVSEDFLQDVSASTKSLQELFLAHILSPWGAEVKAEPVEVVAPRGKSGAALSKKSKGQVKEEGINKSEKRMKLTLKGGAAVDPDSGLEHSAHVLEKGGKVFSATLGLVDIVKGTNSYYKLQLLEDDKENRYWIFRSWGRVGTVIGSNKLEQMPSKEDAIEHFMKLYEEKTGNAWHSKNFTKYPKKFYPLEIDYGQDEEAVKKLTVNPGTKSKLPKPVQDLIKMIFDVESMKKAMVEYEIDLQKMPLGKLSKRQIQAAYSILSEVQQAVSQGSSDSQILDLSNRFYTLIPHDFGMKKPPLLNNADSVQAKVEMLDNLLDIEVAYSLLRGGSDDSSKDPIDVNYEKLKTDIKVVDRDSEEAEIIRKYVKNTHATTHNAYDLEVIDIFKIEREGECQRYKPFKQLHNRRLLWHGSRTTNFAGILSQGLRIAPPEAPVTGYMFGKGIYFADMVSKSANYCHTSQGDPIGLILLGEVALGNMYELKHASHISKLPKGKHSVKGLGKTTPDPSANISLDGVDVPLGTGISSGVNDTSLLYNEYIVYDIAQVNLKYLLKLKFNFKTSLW

These are yes or no findings as the source states them, for the method shown. Binding seen in cells or lysates may run through a third protein. Some entries that bind do so weakly or less than the wild type.

B1: Splice Isoform 1 of Activator 1 140 kDa subunit (protein, UniProt P35251 1-1148)
chain: MDIRKFFGVIPSGKKLVSETVKKNEKTKSDEETLKAKKGIKEIKVNSSRKEDDFKQKQPSKKKRIIYDSDSESEETLQVKNAKKPPEKLPVSSKPGKISRQDPVTYISETDEEDDFMCKKAASKSKENGRSTNSHLGTSNMKKNEENTKTKNKPLSPIKLTPTSVLDYFGTGSVQRSNKKMVASKRKELSQNTDESGLNDEAIAKQLQLDEDAELERQLHEDEEFARTLAMLDEEPKTKKARKDTEAGETFSSVQANLSKAEKHKYPHKVKTAQVSDERKSYSPRKQSKYESSKESQQHSKSSADKIGEVSSPKASSKLAIMKRKEESSYKEIEPVASKRKENAIKLKGETKTPKKTKSSPAKKESVSPEDSEKKRTNYQAYRSYLNREGPKALGSKEIPKGAENCLEGLIFVITGVLESIERDEAKSLIERYGGKVTGNVSKKTNYLVMGRDSGQSKSDKAAALGTKIIDEDGLLNLIRTMPGKKSKYEIAVETEMKKESKLERTPQKNVQGKRKISPSKKESESKKSRPTSKRDSLAKTIKKETDVFWKSLDFKEQVAEETSGDSKARNLADDSSENKVENLLWVDKYKPTSLKTIIGQQGDQSCANKLLRWLRNWQKSSSEDKKHAAKFGKFSGKDDGSSFKAALLSGPPGVGKTTTASLVCQELGYSYVELNASDTRSKSSLKAIVAESLNNTSIKGFYSNGAASSVSTKHALIMDEVDGMAGNEDRGGIQELIGLIKHTKIPIICMCNDRNHPKIRSLVHYCFDLRFQRPRVEQIKGAMMSIAFKEGLKIPPPAMNEIILGANQDIRQVLHNLSMWCARSKALTYDQAKADSHRAKKDIKMGPFDVARKVFAAGEETAHMSLVDKSDLFFHDYSIAPLFVQENYIHVKPVAAGGDMKKHLMLLSRAADSICDGDLVDSQIRSKQNWSLLPAQAIYASVLPGELMRGYMTQFPTFPSWLGKHSSTGKHDRIVQDLALHMSLRTYSSKRTVNMDYLSLLRDALVQPLTSQGVDGVQDVVALMDTYYLMKEDFENIMEISSWGGKPSPFSKLDPKVKAAFTRAYNKEAHLTPYSLQAIKASRHSTSPSLDSEYNEELNEDDSQSDEKDQDAIETDAMIKKKTKSSKPSKPEKDKEPRKGKGKSSKK
In the case of B1, the binding entry is “binds”.
